# Laboratory results from PubChem BioAssay AID485298 (National Center for Advancing Translational Sciences (NCATS), 2010).
# Values joined by “and” are separate entries in the source; they are usually repeats but may differ in a detail not shown here. Equal entries are not always repeated. Among all 320,000 compounds or so, about 740 (0.23%) were called active. The inconclusive results got no clear call from the source; some entries with a clear call stand among them for comparison. Calls follow the shape of the dose curve; as a rule, active = well fitted activation curve with a large enough effect; inconclusive = small, poorly fitted or top-dose-only effect; inactive = no such curve, though single readings can be large or run the other way. Where the call is inconclusive, the potency comes from a doubtful curve fit.
# Experiment: qHTS Assay for Small Molecule Inhibitors of Mitochondrial Division or Activators of Mitochondrial Fusion; also: nearly all actives have a fitted effect of over 45% in size
# Conditions: S. cerevisiae fusion-defective mutant growth rescue, CellTiterGlo 48 h; series mostly up to 46.1 µM
# In short: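 Growth-rescue viability read-out: after 48 h at the non-permissive 37C in glycerol/ethanol YPEG, yeast mitochondrial fusion mutants are measured by CellTiterGlo luminescence; compounds (23 nl pinned per well) restoring growth score as division inhibitors or fusion activators.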
# Potency is read from the fitted curve at half-maximal effect.
row,SMILES,Potency
1,Clc1cc(I)cc(Cl)c1NC1=NCCN1,"inconclusive: 20.6 µM [activator, partial curve]"
2,COC(=O)C1=C(c2ccc3ccccc3c2)C[C@@H]2CC[C@H]1N2C,inactive
3,CC1(C)Cc2c(sc3c2C(=O)NC(c2cccnc2)N3)CO1 (stereo not given),inactive
4,COC(=O)C1=C(c2ccc(Cl)c(C(F)(F)F)c2)C[C@@H]2CC[C@H]1N2C(=O)NCCNC(C)=O,inactive
5,Cc1ccccc1-n1c(/C=C/c2ccccn2)nc2ccccc2c1=O,"inconclusive: 3.16 µM [activator, full curve]"
6,O=C(Nc1nccs1)C(Cl)(Cl)Cl,"inconclusive: 35.5 µM [activator, single point]"
7,C#CCN1CCN(c2cccc(C(F)(F)F)c2)CC1,inactive
8,CSc1ccc(C(=O)C2CCCN(Cc3cnc(SC)nc3)C2)cc1 (stereo not given),"inconclusive: 22.4 µM [activator, single point]"
9,Cc1nn(-c2ccccc2)c2c1CC1(C(=O)N(C)C(=O)N(C)C1=O)C1CCCCN21 (stereo not given),inactive
10,COC(=O)C1=C(c2ccc(F)cc2OCc2ccccc2)C[C@@H]2CC[C@H]1N2C(=O)NCc1ccccc1,"inconclusive: 15.8 µM [activator, single point]"
11,CN1CCC(c2c[nH]c3ccccc23)C1 (stereo not given),"inconclusive: 3.16 µM [activator, single point]"
12,CCc1ccc(OCC(=O)N2CCN(Cc3ccc4c(c3)OCO4)CC2)cc1,"inconclusive: 14.1 µM [activator, partial curve]"
13,COc1cccc(N2CCN(C(=O)C3CCCN(S(=O)(=O)c4ccc5c(c4)oc(=O)n5C)C3)CC2)c1 (stereo not given),"inconclusive: 22.4 µM [activator, single point]"
14,CCN1CCN(c2cc(N3CCCC3)c([N+](=O)[O-])cc2F)CC1,inactive
15,O=[N+]([O-])c1ccc(N2CCCC2)c2ncccc12,inactive
16,N#Cc1c(Cl)nc(Cl)c2c1CCN(Cc1ccccc1)C2,"inconclusive: 31.6 µM [activator, single point]"
17,CCC(C)(C)n1nnnc1C(c1cccs1)N1CC=C(c2ccc(F)cc2)CC1 (stereo not given),active: 10 µM
18,C[C@]12CCC(OC(=O)CCC(=O)O)CC1=CCC1C2CC[C@]2(C)C(=O)CCC12 (stereo not given in full),"inconclusive: 6.31 µM [activator, partial curve]"
19,COC(=O)C1=C(c2ccc(-c3ccccc3)c(F)c2)C[C@@H]2CC[C@H]1N2C(=O)NC1CC1,"inconclusive: 17.8 µM [activator, single point]"
20,COc1cccc(CN2CCN(Cc3cccc(F)c3)CC2)c1,inactive
21,Cc1c2ccncc2c(C)c2c1[nH]c1ccccc12,"inactive and inconclusive: 14.6 µM [activator, partial curve]"
22,COC(=O)C1=C(c2ccc(F)cc2OCc2ccccc2)C[C@@H]2CC[C@H]1N2C(=O)NCc1cccc(F)c1,"inconclusive: 20 µM [activator, single point]"
23,COC(=O)C1=C(c2ccc(-c3ccccc3)c(F)c2)C[C@@H]2CC[C@H]1N2C(=O)NCCCOC(C)C,"inconclusive: 22.4 µM [activator, single point]"
24,O=C1NC(=O)C(CCc2ccccn2)(Cc2cccc(Cl)c2Cl)C(=O)N1c1ccc(Br)cc1 (stereo not given),active: 11.2 µM
25,COc1ccc2nc(NC3=NCCN3)sc2c1,"inconclusive: 1.58 µM [activator, partial curve]"

# 3 successive compounds already listed:
row,SMILES,Potency
20,COc1cccc(CN2CCN(Cc3cccc(F)c3)CC2)c1,inactive
21,Cc1c2ccncc2c(C)c2c1[nH]c1ccccc12,"inactive and inconclusive: 14.6 µM [activator, partial curve]"
22,COC(=O)C1=C(c2ccc(F)cc2OCc2ccccc2)C[C@@H]2CC[C@H]1N2C(=O)NCc1cccc(F)c1,"inconclusive: 20 µM [activator, single point]"

# Following part

row,SMILES,Potency
1,CCCNC(=O)N1[C@H]2CC[C@@H]1C(C(=O)OC)=C(c1ccc(-c3ccccc3)c(F)c1)C2,"inconclusive: 17.8 µM [activator, single point]"
2,Cc1cccc(OC(=O)n2c(=S)oc3cc(Cl)ccc32)c1,"inconclusive: 17.8 µM [activator, single point]"
3,COc1cccc(NP(=O)(Oc2ccccc2)Oc2ccccc2)c1,"inconclusive: 17.8 µM [activator, single point]"
4,Cc1cccc(N2CCN(C(=O)CCNS(=O)(=O)c3ccc4c(c3)oc(=O)n4C)CC2)c1C,active: 20 µM
5,COC(=O)C1C2c3ccccc3OC1(C)N=c1s/c(=C/c3cnn(C)c3)c(=O)n12 (stereo not given),active: 12.6 µM
6,CCOP(=O)(OCC)C(NC(C)=O)C(=O)c1ccccc1 (stereo not given),"inconclusive: 10 µM [activator, partial curve]"
7,COC(=O)C1=C(c2cccc(OCc3ccccc3)c2)C[C@@H]2CC[C@H]1N2C(=O)NCCc1ccc(F)cc1,"inconclusive: 22.4 µM [activator, single point]"
8,CCN(CC)C(=O)c1ccc(NC(=O)CCCSc2ccccc2)cc1,"inconclusive: 31.6 µM [activator, single point]"
9,COC(=O)C1=C(c2ccc(F)cc2OCc2ccccc2)C[C@@H]2CC[C@H]1N2C(=O)NCc1ccccc1Cl,"inconclusive: 6.31 µM [activator, partial curve]"
10,CN1C(=O)CN=C(c2ccccc2)c2cc([N+](=O)[O-])ccc21,"inconclusive: 20 µM [activator, partial curve]"
11,COc1ccc2c(c1)/C(=C/c1cnc[nH]1)C(=O)N2,"inconclusive: 20.6 µM [activator, single point]"
12,O=C(c1ccc(C(F)(F)F)cc1)C1CCCN(Cc2ccncc2)C1 (stereo not given),"inconclusive: 2.24 µM [activator, full curve, poor fit]"
13,COC(=O)C1=C(c2cccc(OCc3ccccc3)c2)C[C@@H]2CC[C@H]1N2C(=O)NCc1ccccc1OC,"inconclusive: 20 µM [activator, single point]"
14,COC(=O)C1=C(c2ccc(F)cc2OCc2ccccc2)C[C@@H]2CC[C@H]1N2C(=O)NCc1ccc(F)cc1,"inconclusive: 14.1 µM [activator, single point]"
15,CCCCn1c(NC(=O)c2ccc(Br)o2)c(C(=O)OCC)c2nc3ccccc3nc21,active: 8.91 µM
16,Cc1ccc(-c2nc3ccccc3c(=O)n2-c2cccc(C)n2)cc1,"inconclusive: 0.355 µM [activator, full curve, poor fit]"
17,COc1ccc(-c2nc3ccccc3c(=O)n2-c2ccc(OC)cc2)cc1,inactive
18,COc1cccc(CNCCc2ccccc2)c1OC,"inconclusive: 11.2 µM [activator, partial curve]"
19,CCOC(=O)CNC(=O)CNC(=O)C(Cc1ccc(N(CCCl)CCCl)cc1)NC(C)=O (stereo not given),inactive
20,Cc1cccn2c(=O)c3c(nc12)N1CCC(Cc2ccccc2)CC1C1(C3)C(=O)N(C)C(=O)N(C)C1=O (stereo not given),active: 17.8 µM
21,O=C1NC(=O)N(Cc2ccc(F)cc2)C(=O)/C1=C/c1cccs1,inactive
22,COC(=O)C1=C(c2ccc(Cl)c(C(F)(F)F)c2)C[C@@H]2CC[C@H]1N2C(=O)NCCOc1ccccc1,"inconclusive: 22.4 µM [activator, single point]"
23,CC(C)N1C(=O)NC(=O)C2(Cc3cc([N+](=O)[O-])ccc3N(C)C2c2ccccc2)C1=O (stereo not given),"inconclusive: 12.6 µM [activator, partial curve]"
24,Cc1oc(-c2ccccc2Cl)nc1CN1C(=O)CN=C(c2ccccc2)c2ccccc21,"inconclusive: 31.6 µM [activator, single point]"
25,COC(=O)C1=C(c2ccc(F)cc2F)C[C@@H]2CC[C@H]1N2C(=O)N1CCC(O)(c2ccc(Cl)cc2)CC1,"inconclusive: 31.6 µM [activator, single point]"
